Binding data for 1 molecule are collected here from publication PMC5524638.

Sequences of proteins named here, by UniProt entry; tags and fusion partners are left off.
UniProt Q99708: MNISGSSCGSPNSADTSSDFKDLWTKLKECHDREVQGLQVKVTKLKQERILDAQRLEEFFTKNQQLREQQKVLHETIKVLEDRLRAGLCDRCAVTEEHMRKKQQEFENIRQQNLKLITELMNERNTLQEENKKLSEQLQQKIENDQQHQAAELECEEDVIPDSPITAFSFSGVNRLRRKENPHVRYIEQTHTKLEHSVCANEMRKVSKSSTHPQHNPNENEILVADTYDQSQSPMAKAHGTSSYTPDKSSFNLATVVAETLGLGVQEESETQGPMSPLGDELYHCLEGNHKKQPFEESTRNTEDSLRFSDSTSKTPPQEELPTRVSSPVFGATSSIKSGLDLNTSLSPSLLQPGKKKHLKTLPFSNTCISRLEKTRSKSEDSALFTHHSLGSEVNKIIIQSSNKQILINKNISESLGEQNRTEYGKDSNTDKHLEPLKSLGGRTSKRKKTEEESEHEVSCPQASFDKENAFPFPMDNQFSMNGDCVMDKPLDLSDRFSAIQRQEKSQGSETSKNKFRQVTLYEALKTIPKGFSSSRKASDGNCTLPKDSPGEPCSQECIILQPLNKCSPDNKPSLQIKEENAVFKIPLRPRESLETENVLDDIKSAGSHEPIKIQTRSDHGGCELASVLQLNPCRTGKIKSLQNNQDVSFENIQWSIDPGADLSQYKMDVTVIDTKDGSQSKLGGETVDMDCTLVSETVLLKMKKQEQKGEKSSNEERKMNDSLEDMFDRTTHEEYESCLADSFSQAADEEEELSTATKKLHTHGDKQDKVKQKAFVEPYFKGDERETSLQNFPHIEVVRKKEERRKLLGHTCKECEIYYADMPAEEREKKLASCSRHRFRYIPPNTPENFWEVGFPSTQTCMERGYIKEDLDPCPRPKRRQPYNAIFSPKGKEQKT

The experiment concerns the target GFP-CtIP (human) (UniProt Q99708). The experiment is described as follows: co-IP; GFP-Trap_M magnetic beads on 1 mg extract of U2OS cells expressing GFP-CtIP or GFP; 50 mM Tris-HCl pH 7.5, 50 mM NaCl, 1 mM EDTA, 0.2% Triton X-100; overnight at 4 °C; blotted.

These are yes or no findings as the source states them, for the method shown. In cells and extracts the contact can be indirect. Some binding calls cover weakened binding; strength is not graded here.

B1: CBX4 (protein, UniProt O00257 1-560)
chain: MELPAVGEHVFAVESIEKKRIRKGRVEYLVKWRGWSPKYNTWEPEENILDPRLLIAFQNRERQEQLMGYRKRGPKPKPLVVQVPTFARRSNVLTGLQDSSTDNRAKLDLGAQGKGQGHQYELNSKKHHQYQPHSKERAGKPPPPGKSGKYYYQLNSKKHHPYQPDPKMYDLQYQGGHKEAPSPTCPDLGAKSHPPDKWAQGAGAKGYLGAVKPLAGAAGAPGKGSEKGPPNGMMPAPKEAVTGNGIGGKMKIVKNKNKNGRIVIVMSKYMENGMQAVKIKSGEVAEGEARSPSHKKRAADERHPPADRTFKKAAGAEEKKVEAPPKRREEEVSGVSDPQPQDAGSRKLSPTKEAFGEQPLQLTTKPDLLAWDPARNTHPPSHHPHPHPHHHHHHHHHHHHAVGLNLSHVRKRCLSETHGEREPCKKRLTARSISTPTCLGGSPAAERPADLPPAAALPQPEVILLDSDLDEPIDLRCVKTRSEAGEPPSSLQVKPETPASAAVAVAAAAAPTTTAEKPPAEAQDEPAESLSEFKPFFGNIIITDVTANCLTVTFKEYVTV
In the case of B1, the binding result is on record as “binds”.
